{"source": "PubChem BioAssay AID651640", "about": "(Broad Institute, 2012)", "note": "Out of some 350,000 compounds screened, about 6,000 (1.7%) were called active. Inconclusive means that the source gave no clear call. Such entries were picked first, then a sample of the others. Rule as the data show it: active = CPE inhibition above about 20% (passing the limit was not always enough); inconclusive = no clear call, values can overlap the other calls; tested in BHK-21 cells."}
{"test": "protection of cells from dengue 2 killing – plate reader, single concentration, primary screen (AID 651640);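 also: 0% = median of neutral control wells and 100% = median of positive control wells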", "settings": "DENV2-infected cells, cytopathic effect rescue, at 9.99 µM, stronger effect = higher value"}
{"smiles": "CN(CC(=O)Nc1cccc(F)c1)C(=O)c1cccnc1Sc1ccc(Cl)cc1", "CPE inhibition": "inconclusive: 58.3%"}
{"smiles": "N#C/C(=C(/O)c1cccs1)c1nnc2n1CCCCC2", "CPE inhibition": "inactive: 14.9%"}
{"smiles": "C[C@@H]1CN([C@H](C)CO)C(=O)c2cccc(NC(=O)Nc3ccc4c(c3)OCO4)c2O[C@H]1CN(C)C(=O)NC1CCCCC1", "CPE inhibition": "inconclusive: 23.8%"}
{"smiles": "CC(C)[C@H](C)NC(=O)N(C)C[C@@H]1OCc2ccccc2-c2ccccc2C(=O)N([C@H](C)CO)C[C@@H]1C", "CPE inhibition": "inactive: 9.85%"}
{"smiles": "C/C=C/c1ccccc1[C@H]1[C@@H](C#N)N(C(=O)CN2CCOCC2)[C@@H]1CO", "CPE inhibition": "active: 38.6%"}
{"smiles": "CCCNC(=O)N1C[C@H](C)[C@H](OC)CN(C)C(=O)c2cc(NS(=O)(=O)CC(F)(F)F)ccc2OC[C@H]1C", "CPE inhibition": "inactive: -5.38%"}
{"smiles": "C[C@@H]1CN([C@H](C)CO)S(=O)(=O)c2ccc(/C=C/c3ccccc3)cc2O[C@@H]1CN(C)C", "CPE inhibition": "inconclusive: 64.7%"}
{"smiles": "O=c1ccc(Cl)n[nH]1", "CPE inhibition": "inconclusive: 24%"}
{"smiles": "COc1ccc(-c2csc3ncn(-c4ccccc4)c(=O)c23)cc1OC", "CPE inhibition": "inactive: 3.58%"}
{"smiles": "COc1cn(-c2ccccc2)nc1C(=O)Nc1ccc(C)cc1", "CPE inhibition": "inconclusive: 28%"}
{"smiles": "C[C@@H]1CN([C@@H](C)CO)C(=O)c2cc(-c3ccccc3)cnc2O[C@H]1CN(C)Cc1ccccn1", "CPE inhibition": "inconclusive: 31.1%"}
{"smiles": "CC(=O)Oc1ccc(-c2cccc(C(=O)N3CCCCC3)c2)cc1", "CPE inhibition": "inconclusive: 21.8%"}
{"smiles": "CCCC[C@@H]1CNCCN1CCCc1cc(OC)c(OC)c(OC)c1", "CPE inhibition": "inconclusive: 35.2%"}
{"smiles": "O=C(Nc1ccc(F)cc1)N1CCCCN2[C@H](CO)[C@H](c3ccc(C#CC4CC4)cc3)[C@@H]2C1", "CPE inhibition": "inconclusive: 26.2%"}
{"smiles": "CNC(=O)C[C@H]1CC[C@H]2[C@@H](COC[C@@H](O)CN2S(=O)(=O)c2cccc(Cl)c2)O1", "CPE inhibition": "inconclusive: 27.3%"}
{"smiles": "O=C(C1=C[C@@H](c2coc3ccccc3c2=O)C[C@@H](OCc2ccc(CO)cc2)O1)N1CCN(Cc2ccc3c(c2)OCO3)CC1", "CPE inhibition": "inconclusive: 36.2%"}
{"smiles": "C[C@H](CO)N1C[C@H](C)[C@@H](CN(C)S(C)(=O)=O)OCCCC[C@H](C)Oc2ccc(NS(=O)(=O)c3ccc(Cl)cc3)cc2C1=O", "CPE inhibition": "inactive: -5.75%"}
{"smiles": "Cc1cc(SCC(=O)N2CCCC2=O)nc2c(C)cccc12", "CPE inhibition": "inconclusive: 22.6%"}
{"smiles": "CCOC(=O)C1=C(c2ccccc2)NC(=O)NC1c1ccc(O)c(OCC)c1", "note": "(stereo not given)", "CPE inhibition": "inactive: 8.12%"}
{"smiles": "O=[N+]([O-])c1ccccc1S(=O)(=O)Nc1cccc(-c2ccc3nncn3n2)c1", "CPE inhibition": "active: 64.8%"}
{"smiles": "Cc1cccc(NC(=S)NC2CC3C=CC2C3)c1", "note": "(stereo not given)", "CPE inhibition": "inactive: -2.04%"}
{"smiles": "C[C@H]1CN([C@@H](C)CO)C(=O)Cc2cc(NS(=O)(=O)c3ccc(Cl)cc3)ccc2O[C@@H]1CN(C)Cc1ccc(C(F)(F)F)cc1", "CPE inhibition": "inactive: 10.5%"}
{"smiles": "Cc1ccccc1S(=O)(=O)/N=C(/c1ccccc1)N1CCOCC1", "CPE inhibition": "inactive: 0.509%"}
{"smiles": "COc1ccc(N(C2=NCCCS2)S(=O)(=O)c2ccc(C(C)(C)C)cc2)cc1", "CPE inhibition": "inactive: -2.15%"}
{"smiles": "Cc1ccc2oc3ccccc3c(=O)c2c1", "CPE inhibition": "inconclusive: 73.8%"}
{"smiles": "C[C@@H]1CN([C@H](C)CO)C(=O)c2cc(C#CC3(O)CCCC3)cnc2O[C@@H]1CN(C)Cc1cccnc1", "CPE inhibition": "active: 25.5%"}
{"smiles": "CCOC(=O)C1CCN(C(=O)CN2C(=O)COc3ccc(C(C)(C)C)cc32)CC1", "CPE inhibition": "inconclusive: 23.1%"}
{"smiles": "O=C(NCc1ccc(F)cc1)c1cccc2c1C(=O)c1ccc(Cl)cc1S2(=O)=O", "CPE inhibition": "inconclusive: 59.2%"}
{"smiles": "COc1cc(NS(C)(=O)=O)ccc1Nc1c2ccccc2nc2ccccc12", "CPE inhibition": "inconclusive: 36.9%"}
{"smiles": "CC(C)NC(=O)c1ccc2nc([C@@H]3O[C@H](CO)[C@H](O)[C@H](O)[C@H]3O)[nH]c2c1", "CPE inhibition": "inconclusive: 46.9%"}
{"smiles": "CCc1cccc2c(C(=O)COC(=O)[C@@H]3CC(O)CN3S(=O)(=O)c3ccccc3[N+](=O)[O-])c[nH]c12", "note": "(stereo not given in full)", "CPE inhibition": "inconclusive: 47.1%"}
{"smiles": "CNC(=O)c1ccc2snnc2c1", "CPE inhibition": "inconclusive: 49%"}
{"smiles": "C[C@@H]1CN([C@H](C)CO)C(=O)CCCn2nncc2CO[C@H]1CN(C)C(=O)Cc1ccccc1", "CPE inhibition": "inconclusive: 21.8%"}
{"smiles": "C[C@@H]1CN([C@@H](C)CO)C(=O)c2cc(NS(=O)(=O)c3ccccc3)ccc2O[C@@H](C)CCCCO[C@@H]1CN(C)Cc1ccncc1", "CPE inhibition": "active: 48.9%"}
{"smiles": "CN(C)C(=O)c1ccc(-c2ccc([C@@H]3[C@@H](CO)N4CCCCN(CC5CC5)C[C@@H]34)cc2)cc1", "CPE inhibition": "inactive: -1.46%"}
{"smiles": "O=C(CCNC(=O)C1CCN(S(=O)(=O)c2ccccc2)CC1)NCc1ccccc1Cl", "CPE inhibition": "inconclusive: 49.8%"}
{"smiles": "C[C@H](CO)N1C[C@H](C)[C@@H](CN(C)C(=O)Nc2ccc(C(F)(F)F)cc2)OCCCC[C@H](C)Oc2ccc(NS(=O)(=O)c3cccs3)cc2C1=O", "CPE inhibition": "active: 93.6%"}
{"smiles": "COc1ccc(S(=O)(=O)N2CC[C@@H]3[C@@H](CO)Nc4ccc(C#Cc5cccnc5)cc4[C@@H]32)cc1", "CPE inhibition": "inconclusive: 50.2%"}
{"smiles": "CO[C@H]1CC[C@@H]2CCOc3c(C#N)cccc3C(=O)N(C)C[C@@H](OC)[C@@H](C)C(=O)N(C)C[C@H]1O2", "CPE inhibition": "inactive: 3.48%"}
{"smiles": "Cc1ccc(S(=O)(=O)Nc2cccc3c2O[C@@H](CN(C)Cc2ccccc2)[C@H](C)CN([C@H](C)CO)C3=O)cc1", "CPE inhibition": "inactive: -6.61%"}
{"smiles": "COc1ccc([N+](=O)[O-])cc1N1C(=O)c2cccnc2C1=O", "CPE inhibition": "inactive: 2.46%"}
{"smiles": "C#CCNC(=O)C1=C[C@H](c2ccc3c(c2)OCO3)C[C@H](OCCCCO)O1", "CPE inhibition": "active: 26.2%"}
{"smiles": "O=C(c1ccccc1F)N1CCCC(N2CCN(Cc3ccc4c(c3)OCO4)CC2)C1", "note": "(stereo not given)", "CPE inhibition": "inconclusive: 42.2%"}
{"smiles": "O=C(C[C@H]1C[C@H](C(=O)N2CCOCC2)[C@@]2(CCC3CCCC3)c3[nH]c4ccc(Cl)cc4c3CCN2C1=O)NCc1ccco1", "CPE inhibition": "active: 88.4%"}
{"smiles": "COc1ccc(S(=O)(=O)N(C)C[C@@H]2Oc3ccc(NC(=O)Nc4c(C)noc4C)cc3C(=O)N([C@@H](C)CO)C[C@H]2C)cc1", "CPE inhibition": "inconclusive: 37.3%"}
{"smiles": "CO[C@H]1CN(C)C(=O)c2cc(NS(C)(=O)=O)ccc2OC[C@@H](C)N(C(=O)CC2CC2)C[C@@H]1C", "CPE inhibition": "inactive: -6.04%"}
{"smiles": "O=C(C[C@H]1CC[C@@H](NC(=O)Nc2ccc3c(c2)OCO3)[C@@H](CO)O1)NCc1ccccc1", "CPE inhibition": "inconclusive: 42.8%"}
{"smiles": "CCC(=O)N1[C@H](CO)[C@@H](c2ccc(C3=CCCC3)cc2)[C@H]1CNC(=O)CN(C)C", "CPE inhibition": "inconclusive: 63.4%"}
{"smiles": "O=S(=O)(NCCc1nc2ccccc2[nH]1)c1ccccc1", "CPE inhibition": "inconclusive: 52.1%"}
{"smiles": "CN1CCN(S(=O)(=O)c2ccc(SCCOc3ccc(Cl)cc3)nc2)CC1", "CPE inhibition": "inconclusive: 20.3%"}
{"smiles": "Nc1ccn([C@@H]2O[C@H](C(=O)NCC(F)(F)F)[C@@H](O)[C@H]2O)c(=O)n1", "CPE inhibition": "inconclusive: 41.4%"}
{"smiles": "OCc1ccc(-c2cc[n+](Cc3cc4c(cc3Br)OCO4)cc2)cc1", "CPE inhibition": "inconclusive: 28.8%"}
{"smiles": "COC(=O)[C@@]1(Cc2ccc(F)cc2)[C@H]2c3cc(C(=O)N(C)C)n(Cc4cc(C)n(C)n4)c3C[C@H]2CN1C(=O)c1ccccc1", "CPE inhibition": "inconclusive: 64.3%"}
{"smiles": "O=C1O[C@@H](c2ccccc2)[C@@H](c2ccccc2)N2[C@@H](c3ccccc3OCCO)[C@]3(C(=O)Nc4ccc(C#CC5=CCCCC5)cc43)[C@@H](C(=O)N3CCN(c4ncccn4)CC3)[C@H]12", "CPE inhibition": "inactive: 8.12%"}
{"smiles": "C[C@H](CO)N1C[C@H](C)[C@H](CN(C)C(=O)c2ccccc2)OCCCC[C@H](C)Oc2ccc(NC(=O)Nc3ccc(C(F)(F)F)cc3)cc2C1=O", "CPE inhibition": "active: 58.5%"}
{"smiles": "CC(C)(C)C(C(=O)Oc1ccccc1)c1ccccc1", "note": "(stereo not given)", "CPE inhibition": "inconclusive: 82.9%"}
{"smiles": "O=C(Cc1cccnc1)N1CC(=O)N2[C@H](C1)[C@H](c1ccc(C3=CCCC3)cc1)[C@@H]2CO", "CPE inhibition": "active: 36.2%"}
{"smiles": "CCCNC(=O)C[C@H]1CC[C@H]2[C@@H](COC[C@H](O)CN2C(=O)Nc2c(C)noc2C)O1", "CPE inhibition": "active: 40.9%"}
{"smiles": "CC(Oc1ccccc1)C(=O)N=C1SC2CS(=O)(=O)CC2N1Cc1ccccc1", "note": "(stereo not given)", "CPE inhibition": "inconclusive: 22.1%"}
{"smiles": "COCC(=O)Nc1ccc2c(c1)C(=O)N(C)C[C@H](OC)[C@@H](C)CN(CCc1ccccc1)[C@@H](C)CO2", "CPE inhibition": "inconclusive: 24.6%"}
{"smiles": "O=C(O)c1ccc2c(c1)C(=O)N(c1ccc(C(=O)OCC(=O)c3ccccc3)cc1)C2=O", "CPE inhibition": "inactive: -10%"}
{"smiles": "O=C(Nc1ccc(C(F)(F)F)cc1)N1C[C@@H]2N[C@H](C1)C2c1ccc(-c2cccnc2)cc1", "note": "(stereo not given in full)", "CPE inhibition": "inconclusive: 21.7%"}
{"smiles": "CCCN(C)C[C@H]1OCCCC[C@H](C)Oc2ccc(NS(=O)(=O)c3c(C)noc3C)cc2C(=O)N([C@@H](C)CO)C[C@H]1C", "CPE inhibition": "active: 32.1%"}
{"smiles": "COc1ccc(/C=C2/C(=O)N(c3cccc(F)c3)N=C2C)c(OC)c1", "CPE inhibition": "active: 37.1%"}
{"smiles": "CCCNC(=O)N1[C@@H](C#N)[C@@H](c2ccc(-c3cccnc3)cc2)[C@@H]1CO", "CPE inhibition": "inconclusive: 35.3%"}
{"smiles": "COc1cccc(NC(=O)Nc2ccc3c(c2)C(=O)N(C)C[C@@H](OC)[C@@H](C)CN(C)[C@H](C)CO3)c1", "CPE inhibition": "active: 26%"}
{"smiles": "CO[C@@H]1CN(C)C(=O)c2ccc(NC(C)=O)cc2OC[C@@H](C)N(Cc2cc(F)ccc2F)C[C@H]1C", "CPE inhibition": "inactive: -7.8%"}
{"smiles": "CCn1c(SCC(=O)N2CCCCCC2)nc2c([nH]c3ccccc32)c1=O", "CPE inhibition": "active: 63.3%"}
{"smiles": "CCc1ccc2nc(N(CCCN(C)C)C(=O)c3ccc(C(=O)c4ccccc4)cc3)sc2c1", "CPE inhibition": "inconclusive: 41.9%"}
{"smiles": "CSc1ccc(Cl)c(C(=O)NCCCn2ccnc2)c1", "CPE inhibition": "inconclusive: 25.3%"}
